Assay results taken from patent publication US6774105.
No constants are given. Whether binding was seen depends on the method and setting. In cells and extracts the contact can be indirect. Some binding calls cover weakened binding; strength is not graded here.

By UniProt entry, the sequences of proteins in these tests, tags left out. Residues count along the entry.
UniProt P04202, residues 30-390: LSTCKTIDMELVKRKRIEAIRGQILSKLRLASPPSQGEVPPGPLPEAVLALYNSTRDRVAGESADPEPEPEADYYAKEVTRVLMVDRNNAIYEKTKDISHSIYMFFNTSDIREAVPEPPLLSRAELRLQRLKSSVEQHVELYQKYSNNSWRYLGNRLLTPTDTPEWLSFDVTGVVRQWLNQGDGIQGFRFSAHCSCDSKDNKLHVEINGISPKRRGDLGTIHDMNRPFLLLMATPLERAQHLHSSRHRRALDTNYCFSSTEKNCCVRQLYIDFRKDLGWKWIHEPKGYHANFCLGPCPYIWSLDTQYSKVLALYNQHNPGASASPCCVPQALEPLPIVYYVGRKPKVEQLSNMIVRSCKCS

How the values were obtained:
[1] = target: TGF-β1 produced by MC3T3-E1 cells (mouse (produced by murine MC3T3-E1 cells)) (UniProt P04202); assay: complex in MC3T3-E1 culture medium (co-immunoprecipitation)
[2] = target: TGF-β1 produced by MC3T3-E1 cells (mouse (produced by murine MC3T3-E1 cells)) (UniProt P04202); assay: co-immunoprecipitation with antibody #274 from MC3T3-E1 medium, Western blot with anti-TGF-β1
[3] = target: TGF-β1 produced by MC3T3-E1 cells (mouse (produced by murine MC3T3-E1 cells)) (UniProt P04202); assay: co-immunoprecipitation with antibody #274 from MC3T3-E1 medium, combined with Western analysis

Measured: binding

B1: murine LTBP-3 polypeptide (latent TGF-β binding protein-3) (protein)
chain: GRGVGRPGSGAQAGAGRWAQRFKVVFAPVICKRTCLKGQCRDSCQQGSNMTLIGENGHSTDTLTGSAFRVVVCPLPCMNGGQCSSRNQCLCPPDFTGRFCQVPAAGTGAGTGSSGPGWPDRAMSTGPLPPLAPEGESVASKHAIYAVQVIADPPGPGEGPPAQHAAFLVPLGPGQISAEVQAPPPVVNVRVHHPPEASVQVHRIEGPNAEGPASSQHLLPHPKPPHPRPPTQKPLGRCFQDTLPKQPCGSNPLPGLTKQEDCCGSIGTAWGQSKCHKCPQLQYTGVQKPVPVRGEVGADCPQGYKRLNSTHCQDINECAMPGNVCHGDCLNNPGSYRCVCPPGHSLGPLAAQCIADKPEEKSLCFRLVSTEHQCQHPLTTRLTRQLCCCSVGKAWGARCQRCPADGTAAFKEICPGWERVPYPHLPPDAHHPGGKRLLPLPAPDGPPKPQQLPESPSRAPPLEDTEEERGVTMDPPVSEERSVQQSHPTTTTSPPRPYPELISRPSPPTFHRFLPDLPPSRSAVEIAPTQVTETDECRLNQNICGHGQCVPGPSDYSCHCNAGYRSHPQHRYCVDVNECEAEPCGPGKGICMNTGGSYNCHCNRGYRLHVGAGGRSCVDLNECAKPHLCGDGGFCINFPGHYKCNCYPGYRLKASRPPICEDIDECRDPSTCPDGKCENKPGSFKCIACQPGYRSQGGGACRDVNECSEGTPCSPGWCENLPGSYRCTCAQGIRTRTGRLSCIDVDECEAGKVCQDGICTNTPGSFQCQCLSGYHLSRDRSRCEDIDECDFPAACIGGDCINTNGSYRCLCPLGHRLVGGRKCKKDIDECSQDPGLCLPHACENLQGSYVCVCDEGFTLTQDQHGCEEVEQPHHKKECYLNFDDTVFCDSVLATNVTQQECCCSLGAGWGDHCEIYPCPVYSSAEFHSLVPDGKRLHSGQQHCELCIPAHRDIDECILFGAEICKEGKCVNTQPGYECYCKQGFYYDGNLLECVDVDECLDESNCRNGVCENTRGGYRCACTPPAEYSPAQAQCLIPERWSTPQRDVKCAGASEERTACVWGPWAGPALTFDDCCCRQPRLGTQCRPCPPRGTGSQCPTSQSESNSFWDTSPLLLGKSPRDEDSSEEDSDECRCVSGRCVPRPGGAVCECPGGFQLDASRARCVDIDECRELNQRGLLCKSERCVNTSGSFRCVCKAGFTRSRPHGPACLSAAADDAAIAHTSVIDHRGY
binds: [1] | [2] | [3]
